The assay relates to spiral strips of the arteria pulmonalis of guineapigs. Kind of assay: calcium-antagonistic action: relaxing effect on potassium-depolarised, CaCl2-contracted spiral strips of the arteria pulmonalis (modified method of Godfraind and Kaba and of Schumann et al). The class given is cell-based. Conditions: read-out: IC50 (concentration which inhibits the contraction by 50%). How it is done:
In these experiments, spiral strips of the arteria pulmonalis of guineapigs are depolarised with 40 mmol of potassium, after equilibration in calcium-freeTyrode's solution. The addition of 0.5 mmol of CaCl2 then triggers off contraction. The relaxing effect of the test substance is determined by cumulative addition in 1/2 log 10 graduated concentrations. The concentration of the test substance which inhibits the contraction by 50% (=IC50, mole/l) is determined from the concentration/effect curve (abscissa: -log mole/l of test substance, ordinate: % inhibition of the maximum contraction, mean value of 4 to 6 vascular strips).

For the molecule `COC(=O)C1=C(C)NC(C)=C(C(=O)OC)C1c1ccccc1[N+](=O)[O-]` [nifedipine, methyl 1,4-dihydro-2,6-dimethyl-4-(2-nitrophenyl)-pyridine-3,5-dicarboxylate, reference compound], the IC50 turned out to be 3 nM.

For the origin of these results see patent US4760147A, “Optically active, substituted 1,4-dihydropyridines and their use as medicaments” (Cassella Aktiengesellschaft, priority 1984, dated 1988).
